This test concerns the target T1, SREBP1 (sterol regulatory element binding protein 1), endogenous in rat cortical neurons (rat (endogenous in primary cortical neurons)) (UniProt P56720).
T1 sequence: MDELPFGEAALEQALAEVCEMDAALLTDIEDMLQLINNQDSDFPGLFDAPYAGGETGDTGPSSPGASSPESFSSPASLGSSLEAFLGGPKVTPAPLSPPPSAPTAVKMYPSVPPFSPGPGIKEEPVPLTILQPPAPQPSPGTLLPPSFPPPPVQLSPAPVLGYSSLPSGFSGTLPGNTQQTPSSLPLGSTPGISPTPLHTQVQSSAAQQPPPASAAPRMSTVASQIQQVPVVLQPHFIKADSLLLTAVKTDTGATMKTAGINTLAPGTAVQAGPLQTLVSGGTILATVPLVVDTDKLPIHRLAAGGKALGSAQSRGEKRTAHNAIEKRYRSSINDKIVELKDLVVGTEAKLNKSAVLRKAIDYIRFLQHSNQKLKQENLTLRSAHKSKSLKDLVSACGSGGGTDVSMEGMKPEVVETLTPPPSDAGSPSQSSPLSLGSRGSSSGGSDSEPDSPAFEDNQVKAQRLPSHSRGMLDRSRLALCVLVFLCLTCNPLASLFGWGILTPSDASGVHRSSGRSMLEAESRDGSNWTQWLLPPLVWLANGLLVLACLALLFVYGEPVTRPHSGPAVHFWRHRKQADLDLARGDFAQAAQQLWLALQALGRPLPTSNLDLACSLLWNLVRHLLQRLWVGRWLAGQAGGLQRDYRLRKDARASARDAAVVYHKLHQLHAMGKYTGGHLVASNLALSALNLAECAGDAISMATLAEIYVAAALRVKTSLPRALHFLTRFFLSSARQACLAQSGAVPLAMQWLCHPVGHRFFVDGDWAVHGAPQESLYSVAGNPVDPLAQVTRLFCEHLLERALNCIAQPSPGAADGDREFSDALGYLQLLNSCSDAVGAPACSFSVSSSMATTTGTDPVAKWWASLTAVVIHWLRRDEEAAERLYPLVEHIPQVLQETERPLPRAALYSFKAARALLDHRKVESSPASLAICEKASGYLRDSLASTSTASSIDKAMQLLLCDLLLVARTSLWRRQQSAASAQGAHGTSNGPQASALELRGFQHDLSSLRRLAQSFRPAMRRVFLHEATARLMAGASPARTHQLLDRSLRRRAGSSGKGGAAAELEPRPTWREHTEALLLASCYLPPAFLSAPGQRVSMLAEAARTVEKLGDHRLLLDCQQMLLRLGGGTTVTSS
The experiment in a line: co-IP; lysates of primary rat cortical neurons (control or virus-infected), 500 µg protein, precipitated with 2 µg anti-N-terminus SREBP1 antibody H-160 overnight at 4°C, protein A-sepharose; 25 mM Tris pH 6.8, 0.5% Triton X-100, 0.5% Nonidet P-40; Western blot. In general terms: A western blot detects proteins with antibodies after separation by electrophoresis.

Our source for the binding values is PMC3628100.

These are yes or no findings as the source states them, for the method shown. In cells and extracts the contact can be indirect. Some results given as binding are weak or reduced against the parent protein; the word gives no strength.

B1: SCAP (SREBP-cleavage-activating protein), endogenous in rat cortical neurons (protein, UniProt A2RRU4 1-1276)
chain: MTLTERLREKISQAFYNHGLLCASYPIPIILFTGLCILACCYPLLKLPLPGTGPVEFSTPVKGYSPPPADSDHKQGEPSEQPEWYVGAPVAYIQQIFVKSSVSPWHRNLLAVDVFRSPLSRAFQLVEEIRNHVLRDSSGTKSLEEVCLQVTDLLPGLRKLRSLLPEHGCLLLSPGNFWQNDWERFHADPDIIGTIHQHEPKTLQTSATLKDLLFGVPGKYSGVSLYTRKRMVSYTITLVFQRYHAKFLSSLRARLMLLHPSPNCSLRAENLVHVHFKEEIGIAELIPLVTTYIILFAYIYFSTRKIDMVKSKWGLALAAVVTVLSSLLMSVGLCTLFGLTPTLNGGEIFPYLVVVIGLENVLVLTKSVVSTPVDLEVKLRIAQGLSSESWSIMKNVATELGIILIGYFTLVPAIQEFCLFAVVGLVSDFFLQMLFFTTVLSIDIRRMELADLNKRLPPESCLPSAKPVGRPARYERQLAVRPSTPHTITLQPSSFRNLRLPKRLRVIYFLARTRLAQRLIMAGTVVWIGILVYTDPAGLRTYLAAQVTEQSPLGEGSLGPMPVPSGVLPASHPDPAFSIFPPDAPKLPENQTLPGELPEHAVPAEGVQDSRAPEVTWGPEDEELWRKLSFRHWPTLFNYYNITLAKRYISLLPVIPVTLHLNPREALEGRHPQDGRTAWAPPEPLPAGLWETGPKGPGGTQTHGDITLYKVAALGLAAGIVLVLLLLCLYRVLCPRNYGQPGGGAGRRRRGELPCDDYGYAPPETEIVPLVLRGHLMDIECLASDGMLLVSCCLAGQVCVWDAQTGDCLTRIPRPGPRRDSCGGGAFEAQENWERLSDGGKASPEEPGDSPPLRRRPRGPPPPSLFGDQPDLTCLIDTNFSVQLPPEPTQPEPRHRAGCGRSRDSGYDFSRLVQRVYQEEGLAAVHMSALRPPSPGPPLPQASQEEGTAPEKGSPPLAWAPSTAGSIWSLELQGSLIVVGRSSGRLEVWDAIEGVLCCSNEEISSGITALVFLDRRIVAARLNGSLDFFSLETHTSLSPLQFRGTPGRGSSPSSPVYSSSNTVACHLTHTVPCAHQKPITALRAAAGRLVTGSQDHTLRVFRLEDSCCLFTLQGHSGAITTVYIDQTMVLASGGQDGAICLWDVLTGSRVSHTFAHRGDVTSLTCTTSCVISSGLDDFINIWDRSTGIKLYSIQQDLGCGASLGVISDNLLVTGGQGCVSFWDLNYGDLLQTVYLGKNSEAQPARQILVLDNAAIVCNFGSELSLVYVPSVLEKLD
As for B1, the binding result was “binds”.
